Data: paper PMC11492288
No constants are given. Whether binding was seen depends on the method and setting. Binding seen in cells or lysates may run through a third protein. Some binding calls cover weakened binding; strength is not graded here. Tags and fused reporters may be left off the sequences shown.

Chains of the proteins cited; added tags and fusions are not shown.
UniProt P29466: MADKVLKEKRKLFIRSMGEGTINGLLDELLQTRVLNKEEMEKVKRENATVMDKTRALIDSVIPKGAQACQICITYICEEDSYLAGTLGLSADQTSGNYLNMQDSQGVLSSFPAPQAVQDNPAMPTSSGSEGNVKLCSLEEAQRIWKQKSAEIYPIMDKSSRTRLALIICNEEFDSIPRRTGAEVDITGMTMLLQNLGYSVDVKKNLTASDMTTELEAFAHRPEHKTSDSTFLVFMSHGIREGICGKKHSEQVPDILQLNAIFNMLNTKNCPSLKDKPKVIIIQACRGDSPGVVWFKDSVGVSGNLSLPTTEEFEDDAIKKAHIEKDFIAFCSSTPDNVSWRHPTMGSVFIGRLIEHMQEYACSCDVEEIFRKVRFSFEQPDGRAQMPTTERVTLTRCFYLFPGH
UniProt Q14790: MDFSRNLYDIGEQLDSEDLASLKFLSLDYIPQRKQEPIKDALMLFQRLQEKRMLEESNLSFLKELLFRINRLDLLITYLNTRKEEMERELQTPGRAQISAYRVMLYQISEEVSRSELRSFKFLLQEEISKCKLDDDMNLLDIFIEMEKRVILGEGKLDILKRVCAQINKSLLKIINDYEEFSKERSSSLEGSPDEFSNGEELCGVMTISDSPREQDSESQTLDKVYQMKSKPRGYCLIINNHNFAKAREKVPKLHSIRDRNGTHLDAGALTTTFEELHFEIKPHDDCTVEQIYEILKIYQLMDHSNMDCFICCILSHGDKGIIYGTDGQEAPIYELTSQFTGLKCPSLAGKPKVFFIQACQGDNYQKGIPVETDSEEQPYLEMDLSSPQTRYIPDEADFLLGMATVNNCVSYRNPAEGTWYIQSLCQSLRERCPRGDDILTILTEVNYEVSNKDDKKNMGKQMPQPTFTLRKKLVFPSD

Molecular target: T1, NLRP10-FLAG (human) (UniProt Q86W26)
T1 sequence: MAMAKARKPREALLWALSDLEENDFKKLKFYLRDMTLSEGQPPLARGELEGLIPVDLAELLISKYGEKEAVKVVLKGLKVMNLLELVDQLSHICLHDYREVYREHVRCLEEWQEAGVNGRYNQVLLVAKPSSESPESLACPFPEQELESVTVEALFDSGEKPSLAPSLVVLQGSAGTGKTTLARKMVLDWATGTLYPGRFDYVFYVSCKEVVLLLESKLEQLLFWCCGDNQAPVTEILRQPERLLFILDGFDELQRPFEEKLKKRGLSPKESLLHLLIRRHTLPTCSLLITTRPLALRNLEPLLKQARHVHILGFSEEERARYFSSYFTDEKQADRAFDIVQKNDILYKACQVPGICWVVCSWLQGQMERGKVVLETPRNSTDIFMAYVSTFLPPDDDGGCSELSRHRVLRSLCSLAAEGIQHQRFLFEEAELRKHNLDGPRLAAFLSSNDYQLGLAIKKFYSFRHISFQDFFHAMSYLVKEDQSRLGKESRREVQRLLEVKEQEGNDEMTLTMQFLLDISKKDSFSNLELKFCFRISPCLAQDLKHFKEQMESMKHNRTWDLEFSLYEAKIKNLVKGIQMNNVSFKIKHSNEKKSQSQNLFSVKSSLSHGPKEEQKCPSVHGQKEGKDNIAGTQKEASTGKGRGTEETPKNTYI
Experiment: co-IP; NLRP10-FLAG co-transfected with caspase-HA constructs in 293T cells; IP lysis/wash buffer, 1 mg total lysate; pulled down with anti-FLAG resin, eluted with FLAG peptide; Western blot

Substance | binding
caspase-1-HA (from UniProt P29466 1-404) (enzyme) | binds
caspase-8-HA (from UniProt Q14790 1-479) (enzyme) | binds
